From PubChem BioAssay AID1471 (National Center for Advancing Translational Sciences (NCATS), 2008)
The whole screen tested about 230,000 compounds, of which about 310 (0.13%) were called active. The shares of active, inactive and inconclusive entries below differ from those in the screen. The call rests on the fitted dose curve; in most records, active means well fitted activation curve with a large enough effect; inconclusive means small, poorly fitted or top-dose-only effect; inactive means no such curve, though single readings can be large or run the other way. Where the call is inconclusive, the potency comes from a doubtful curve fit.

Test: qHTS Multiplex Assay to Identify Dual Action Probes in a Cell Model of Huntington: Cytoprotection (ATP); further: nearly all actives have a fitted effect of over 45% in size;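 on cytoprotection (ATP increase): toxic huntingtin expression switched on by the ecdysone agonist tebufenozide; % of control where 0% means no effect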
Conditions: PC12 HTT-Q103 induced, ATP luminescence, 40 h; cytoprotection (ATP increase): at 56.4 µM (top of the series) unless noted
Method in brief: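 PC12 cells stably carrying ecdysone-inducible Htt exon 1 (Q103)–GFP were induced with 100 nM tebufenozide (final) alongside library compounds in a dose series. Cytoprotection was scored as retained ATP by ATPlite luminescence.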
Potency means the concentration at half of the fitted maximal effect.

Compound | Potency | cytoprotection (ATP increase)
CCCN(CC1CC1)C(=O)CSc1nnc(-c2ccco2)n1N | inconclusive: 3550 nM [activator, partial curve] | –
COc1ccc(C(=O)Nc2cccc(S(C)(=O)=O)c2)cc1 | inconclusive: 1260 nM [activator, single point] | –
CCCCNc1nc(C)nc2c1nc(-c1ccccc1)n2CCCN1CCCCC1C (centres undefined) | – | inactive: -51.7%
O=C(c1cnc2ccccn2c1=O)N1CCCc2ccccc21 | – | inactive: 0.294%
CN(C)C(=O)c1cn(N(C)c2ncc(C(F)(F)F)cc2Cl)c(=O)c2ccccc12 | – | inactive: -14.9%
CCOc1ccccc1N1C(=O)CC(Sc2n[nH]c(-c3ccccc3)n2)C1=O (centres undefined) | inconclusive: 5 nM [activator, full curve, poor fit] | –
CCc1ccc(NC2=CC(=O)CC(c3ccco3)C2)cc1 (centres undefined) | – | inactive: -8.16%
O=C(c1ccc2c(=O)n(-c3ccccc3)c(=S)[nH]c2c1)N1CCCCC1 | inconclusive: 89.1 nM [activator, full curve] | –
CC(C)CCn1c(S(=O)(=O)O)nc2ccccc21 | inconclusive: 562 nM [activator, single point] | –
CC1=CC(=O)CC(C)(C)C1(O)/C=C/C(C)=C/C(=O)O (centres undefined) | inconclusive: 11200 nM [activator, partial curve, poor fit] | –
CCc1nc(Nc2ccncc2)c2oc3ccccc3c2n1 | inconclusive: 25100 nM [activator, single point] | –
CCCN(Cc1nc(-c2ccc(Cl)cc2)no1)CC1CCCO1 (centres undefined) | inconclusive: 316 nM [activator, partial curve] | –
CN(CCc1ccc(Cl)c(Cl)c1)CCN1CCCC1 | inconclusive: 1260 nM [activator, single point] | –
CS(=O)(=O)c1ccc(N2CCOCC2)c(S(C)(=O)=O)c1 | inconclusive: 35500 nM [activator, single point] | –
O=C(CC(=O)c1ccccc1O)c1cccc(F)c1 | – | inactive: -64.5%
Cc1ccc(N=Cc2cc(Cc3ccccc3Cl)cc([N+](=O)[O-])c2O)c(O)c1 | inconclusive: 12600 nM [activator, single point] | –
CCOc1ccc(-n2c(SCC(=O)NCc3ccco3)nc3c(c2=O)SCC3)cc1 | inconclusive: 4470 nM [activator, partial curve] | –
CC(=O)N1CCC2(CC1)CCN(c1cccc(-c3ccccc3)c1)CC2 | inconclusive: 6.3 nM [activator, full curve, poor fit] | –
CC(CS(=O)(=O)c1ccccc1[N+](=O)[O-])N1CCOCC1 (centres undefined) | inconclusive: 11200 nM [activator, partial curve, poor fit] | –

Quoted from the listing:
In Potency, `COc1ccc(C(=O)Nc2cccc(S(C)(=O)=O)c2)cc1` reads inconclusive: 1260 nM [activator, single point]
In Potency, `CCCN(Cc1nc(-c2ccc(Cl)cc2)no1)CC1CCCO1` (centres undefined) reads inconclusive: 316 nM [activator, partial curve]
